# Laboratory results from the supplement of paper PMC8728848.
# The list shows a part of the results.
# B1: PX14343G-pdi-535-24-535 (Parabacteroides distasonis) (protein)
# chain: LDTVPKDQLAPSTTWQTEADAKGFIVGCYKDLLDGNTLLYLDCGSDIGYNNFPWEGFRPWGDGSLSSSNPGQILYDYKSIRKANTFLENVDKVTFSSDAVKANYVAQAKAIRAYKYFLMNWWYGGVPIISSYSSADEAKVERNTEQEVRDYIAKDLDEALAGIAEAPEARGYIAKGAVLAIKMREALYYGDWQKAKDAAKAIIDLKQYELDPDYTNLFKVSGVDSKEIILADQNIETLDGLGTIGQMYNNVDQGWSSIVPTQNLVDMYEMSDGLTKEESKTYDAKHPFANRDPRMAMTILYPGRDWRGDVLNTLDEKLQDGTVNKNFPTYTDNASKSALTWAKYLDPMDQYGDVWSSGACPIVFRYAEVLLTYAEAANELSGPSDEIYGYLNQIRQRVGMGEVDKAKYGTKDKLRELIRRERTVELAGEGLRRADIVRWQEDGKMLAEKVMNGDLLRVTGTINYGESEPTKRAEITGTAVIETRQFSSRNRYLPIPQTSMDKNPNLKQNPGY
# What was measured:
# [1] = target: Neu5Gc(a2-8)Neu5Gc(a2-6)Gal(b1-4)GlcNAc; assay: glycan array binding signal (z-score within array); higher = stronger binding; settings: glycan notation: IUPAC condensed, linker removed
# Summary of the method: (§1)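 Glycan array data were curated from 3228 arrays in the Consortium for Functional Glycomics database and kept only where the protein sequence was available. Glycan names were converted to IUPAC-condensed notation, and columns mapping to the same glycan were averaged. The binding signal is a within-array Z-score, averaged across arrays of the same protein sequence at different concentrations or buffers and across linkers. Negative Z-scores can be read as non-binding.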
# [2] = target: Neu5Gc(b2-6)Gal(b1-4)GlcNAc; assay: as above; settings: glycan notation: IUPAC condensed, linker removed
# Summary of the method: as §1
binder,measurement,setting,value
B1,glycan array binding signal (z-score),[1],0.864
same,glycan array binding signal (z-score),[2],0.374
